# In PubChem BioAssay AID2685 (National Center for Advancing Translational Sciences (NCATS), 2010):
# Some of the results follow. The main result of the screen is listed elsewhere. These columns were measured beside it and carry no call. Most of these compounds were active or inconclusive in the main read-out, so they are no random draw. The note in brackets gives the kind of curve behind each potency; many fits are weak.
# Assay: qHTS Assay for Lipid Storage Modulators in Drosophila S3 Cells;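 for cell number change: cells counted by Cell Tracker Red CMTPX staining in the red channel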
# Conditions: BODIPY lipid droplet fluorescence, 18-24 h; for cell number change: measured here: cell count max response, cells fed with added oleic acid
# How it was run: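 Laser-scanning cytometry quantifies lipid droplet accumulation (500–530 nm total intensity; droplet/cell object ratio) in oleic acid-fed (400 uM added) Drosophila S3 cells treated with a concentration series. 20 uM Triacsin C defined 100% inhibition.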
# [1] = measured here: lipid fluorescence (Fed channel) AC50, cells fed with added oleic acid
# [2] = measured here: cell number channel AC50, cells fed with added oleic acid
SMILES,AC50 [1],cell number change [%],AC50 [2]
NCCCC[C@@H]1NC(=O)c2cc([N+](=O)[O-])cc(I)c2SC[C@@H](C(N)=O)NC(=O)[C@H](Cc2ccc(O)cc2)NC1=O,"0.058 µM [falling, full curve, poor fit]",–,–
CC(NC(=O)CN1CCN(CC(=O)Nc2ccccc2Cl)CC1)c1ccc(Br)cc1 (stereo not drawn),–,6.89,–
Cc1ccccc1-c1noc(CNC(=O)COc2ccccc2)n1,"0.651 µM [rising, single point]",10.1,–
O=C(O)C[C@]1(C(=O)Nc2ccc(F)cc2)CC(/C=C/c2ccccc2)=NO1,–,44.4,"29.1 µM [rising, single point]"
Cc1ccc(-c2nc3c(c(=O)[nH]c(=O)n3Cc3ccccc3)n2C)o1,–,-29.2,–
COc1cccc(CNC(=O)C(=O)NCCC2CCCCN2S(=O)(=O)c2cccs2)c1 (stereo not drawn),"13 µM [rising, partial curve]",18,–
Cc1ccccc1-n1c(SCc2cc(=O)n3ccccc3n2)nc2[nH]ncc2c1=O,"0.13 µM [falling, full curve, poor fit]",3.71,–
Cc1ccc(OCC(O)Cn2c(=N)n(Cc3ccccc3)c3ccccc32)cc1 (stereo not drawn),"29.1 µM [falling, single point]",-87,"29.1 µM [falling, single point]"
CCOC(=O)N1CCC(n2c(=S)[nH]c3cc(OCC)c(OCC)cc3c2=O)CC1,–,–,"2.31 µM [rising, partial curve]"
COc1ccc(CCC(=O)NNC(=O)c2ccc(OC)cc2)cc1,–,6.67,"0.00651 µM [rising, full curve, poor fit]"
COc1ccc(NC(=O)CCCCCN2C(=O)CCC2=O)cc1Cl,"4.11 µM [rising, single point]",12.9,"2.59 µM [rising, single point]"
CCOc1ccc(-n2nnnc2SCC(=O)c2ccccc2)cc1,"0.00517 µM [falling, full curve, poor fit]",4.64,–
N#Cc1ccc(OCc2nnc3n2CCCCC3)cc1,"6.51 µM [falling, single point]",–,"2.91 µM [falling, single point]"
O=C(COC(=O)c1cc(=O)c2ccccc2o1)NC1CCCCC1,"6.51 µM [falling, partial curve, poor fit]",-17.9,"0.651 µM [falling, partial curve, poor fit]"
COc1ccc2[nH]c(CN3CCN(CC=C(C)C)C(CCO)C3)c(C)c2c1 (stereo not drawn),–,-24.5,–
Cc1cc(C)c[n+](-c2[nH]c(=O)sc2/C=N/N=C(\N)[S-])c1,"0.116 µM [falling, full curve, poor fit]",-26.9,–
Cc1cc2c(cc1C)NC(c1c(C)n(C)n(-c3ccccc3)c1=O)C1=C(CC(C)(C)CC1=O)N2 (stereo not drawn),"5.17 µM [rising, partial curve, poor fit]",–,"6.51 µM [rising, single point]"

SMILES,AC50 [1],cell number change [%],AC50 [2]
CC(C)(C)NC(=O)CSc1nc(Cc2ccccc2)nc2ccccc12,"6.51 µM [falling, partial curve]",-18.3,–
CC(=O)Nc1ccc(NS(=O)(=O)c2ccc(OC(C)C(=O)N3CCOCC3)cc2)cc1 (stereo not drawn),"1.84 µM [falling, partial curve]",-25.1,"3.66 µM [falling, full curve, poor fit]"
COc1ccc(-c2c(-c3cc(OC)cc(OC)c3)n(C)c3ccc(-c4cc(F)cc(OC)c4)cc23)cc1,–,0.791,–
COc1ccc(-c2cc(C(=O)OCC(=O)NC(C)C)c3ccccc3n2)cc1,"2.91 µM [rising, full curve, poor fit]",59.2,"1.64 µM [rising, full curve]"
CC(C)(C)C(=O)N1CCN(c2nc3ccccc3s2)CC1,"20.6 µM [rising, partial curve]",6.92,–
Cc1cccc(NS(=O)(=O)c2cccc(C(=O)N3CC(C)OC(C)C3)c2)c1 (stereo not drawn),"29.1 µM [rising, single point]",148,"29.1 µM [rising, single point]"
CC(C)(C)NS(=O)(=O)c1cccc(S(=O)(=O)c2cccc(S(=O)(=O)NC(C)(C)C)c2)c1,"3.26 µM [rising, single point]",-13.6,–
Cc1nc2ccc(N)cc2s1,"14.6 µM [falling, partial curve]",22.4,–
CCN(C(=O)C(=O)c1c[nH]c2ccccc12)c1ccccc1,"29.1 µM [rising, single point]",27,"2.31 µM [rising, full curve, poor fit]"
CC1=CC(C2CC(=O)N(c3ccccc3C)C2=O)CC2C(=O)N(c3ccccc3C)C(=O)C12 (stereo not drawn),–,–,"6.51 µM [rising, single point]"
O=c1cc(-c2ccccc2)nc(SCc2ccc(F)cc2)[nH]1,–,-0.576,–
CCc1[nH]nc2c1C(c1cccc(OC(=O)N3CCOCC3)c1)C(C#N)=C(N)O2 (stereo not drawn),–,–,"3.66 µM [falling, partial curve, poor fit]"
CCc1nnc(NS(=O)(=O)c2ccc(NC(=O)CCC(=O)O)cc2)s1,"29.1 µM [rising, partial curve, poor fit]",8.77,–
CCOc1cc(N2CCOCC2)c(OCC)cc1NC(=O)COC(=O)COc1ccc(C#N)cc1,"0.0517 µM [rising, full curve, poor fit]",12.9,–
O=C(c1cccc(S(=O)(=O)Nc2ccc(Br)cc2)c1)N1CCCC1,"23.1 µM [falling, single point]",-43.2,"7.31 µM [falling, partial curve]"
CCOC(=O)Cc1cc(=O)n2[nH]c(-c3ccc(C)cc3)cc2n1,"0.651 µM [falling, full curve]",–,"0.116 µM [falling, full curve, poor fit]"
O=C(O/N=C(\c1ccccc1)c1ccccn1)c1cccc2ccccc12,"29.1 µM [falling, partial curve, poor fit]",-46.5,"0.291 µM [falling, full curve]"

# Look-ups from above:
# Under cell number change [%], CC(C)(C)NC(=O)CSc1nc(Cc2ccccc2)nc2ccccc12 has the entry -18.3
# Under cell number change [%], CCOc1cc(N2CCOCC2)c(OCC)cc1NC(=O)COC(=O)COc1ccc(C#N)cc1 has the entry 12.9
